Results are given in words; binding and its absence hold for the method and conditions named. Binding seen in cells or lysates may run through a third protein. A result given as binding can be weak or reduced; the word gives no strength.
Columns and labels:
[1] = molecular target: GFP-tagged gametocyte exported protein 7 (GEXP07)/CX3CL1-binding protein 2 (CBP2) (Plasmodium falciparum 3D7) (UniProt Q8IEJ0); assay: co-IP; GFP-Trap IP from infected RBCs solubilised in 1% Triton X-100; SDS-PAGE and Western blot probed with anti-MAHRP1; input loading 4% of the pellet loading
[2] = molecular target: GFP-tagged GEXP10/CX3CL1-binding protein 1 (CBP1) (Plasmodium falciparum 3D7) (UniProt Q8I2D9); assay: as above

The chains behind the UniProt entries cited, without tags or fusion partners. Where a name states a change or a piece, a line headed by the entry shows the natural chain unless it says otherwise.
UniProt Q8IEJ0: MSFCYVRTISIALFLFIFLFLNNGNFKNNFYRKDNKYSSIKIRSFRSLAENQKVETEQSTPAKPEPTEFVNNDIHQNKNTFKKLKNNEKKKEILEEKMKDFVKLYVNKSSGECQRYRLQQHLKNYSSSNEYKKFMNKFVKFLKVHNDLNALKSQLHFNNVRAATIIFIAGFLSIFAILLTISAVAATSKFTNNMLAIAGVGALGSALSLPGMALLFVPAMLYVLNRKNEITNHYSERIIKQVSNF
UniProt Q8I2D9: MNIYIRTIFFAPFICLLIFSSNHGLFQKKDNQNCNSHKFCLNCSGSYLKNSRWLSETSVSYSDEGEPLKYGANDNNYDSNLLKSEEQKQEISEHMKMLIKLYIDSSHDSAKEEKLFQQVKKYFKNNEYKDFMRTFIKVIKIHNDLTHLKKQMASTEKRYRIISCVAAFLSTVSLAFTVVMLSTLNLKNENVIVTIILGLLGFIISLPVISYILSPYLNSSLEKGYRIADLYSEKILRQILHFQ
UniProt Q6V0W7: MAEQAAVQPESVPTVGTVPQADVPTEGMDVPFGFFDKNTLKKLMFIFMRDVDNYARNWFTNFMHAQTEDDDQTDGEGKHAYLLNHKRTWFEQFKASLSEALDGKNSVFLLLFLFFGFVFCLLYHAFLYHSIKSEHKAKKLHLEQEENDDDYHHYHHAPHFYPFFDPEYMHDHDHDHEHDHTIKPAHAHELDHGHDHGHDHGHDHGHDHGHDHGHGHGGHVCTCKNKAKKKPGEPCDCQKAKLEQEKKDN

For “membrane-associated histidine-rich protein 1 (MAHRP1) (from UniProt Q6V0W7 1-249)”, the binding [1] was “binds” and the binding [2] was “binds”.

From article PMC7078486
